Measurements reported in PubChem BioAssay AID1259254 (NCATS, 2017).
Shown is an unselected part of about 59,000 reagents tested. About 1,550 of all reagents (2.6%) count as active. 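G2 share is only a proxy for re-replication; each gene was hit by three separate siRNAs, and active genes were retested.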 Reagents against one gene are numbered here. Further read-outs or replicates are left out here. Not given: the amount of reagent.

Assay: 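Genome-wide screen for genes that prevent DNA re-replication in cancer cells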 (primary screen)
Cells: human HCT116 colorectal cancer cells
Knock-down reagent: single siRNA against human genes
Time to read-out: 3 days
Detection: 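Nuclei stained with Hoechst and imaged; cell-cycle phase assigned by DNA content; G2 share scaled per plate, non-targeting siRNA 0%, GMNN siRNA 100%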
Reading the numbers: G2 robust z-score and G2 cells, % of GMNN control: higher = more G2 cells, more excess DNA replication
Active means: 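Active siRNAs have a G2 robust z of 5 or more median absolute deviations over the median, which in these data means about 38% or higher of GMNN control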

C1orf210 #1 → G2 robust z-score = 1.62; G2 cells, % of GMNN control = 14.4; Call = inactive
C1orf210 #2 → G2 robust z-score = -0.402; G2 cells, % of GMNN control = 0.137; Call = inactive
C1orf210 #3 → G2 robust z-score = 2.59; G2 cells, % of GMNN control = 21.2; Call = inactive
C5orf15 #1 → G2 robust z-score = -0.488; G2 cells, % of GMNN control = -0.469; Call = inactive
C5orf15 #2 → G2 robust z-score = 1.76; G2 cells, % of GMNN control = 15.3; Call = inactive
C5orf15 #3 → G2 robust z-score = -0.544; G2 cells, % of GMNN control = -0.86; Call = inactive
NUP210L #1 → G2 robust z-score = -0.354; G2 cells, % of GMNN control = 0.477; Call = inactive
NUP210L #2 → G2 robust z-score = -1.21; G2 cells, % of GMNN control = -5.52; Call = inactive
NUP210L #3 → G2 robust z-score = -0.755; G2 cells, % of GMNN control = -2.35; Call = inactive
MTNR1B #1 → G2 robust z-score = 2.6; G2 cells, % of GMNN control = 21.3; Call = inactive
MTNR1B #2 → G2 robust z-score = -0.579; G2 cells, % of GMNN control = -1.11; Call = inactive
MTNR1B #3 → G2 robust z-score = -0.345; G2 cells, % of GMNN control = 0.538; Call = inactive
PCDHGA1 #1 → G2 robust z-score = -0.645; G2 cells, % of GMNN control = -1.57; Call = inactive
PCDHGA1 #2 → G2 robust z-score = -1.19; G2 cells, % of GMNN control = -5.43; Call = inactive
PCDHGA1 #3 → G2 robust z-score = 0.269; G2 cells, % of GMNN control = 4.86; Call = inactive

2 consecutive reagents from above:
C5orf15 #1 → G2 robust z-score = -0.488; G2 cells, % of GMNN control = -0.469; Call = inactive
C5orf15 #2 → G2 robust z-score = 1.76; G2 cells, % of GMNN control = 15.3; Call = inactive

Further reagents follow.
BTN1A1 #1 → G2 robust z-score = -0.489; G2 cells, % of GMNN control = -0.471; Call = inactive
BTN1A1 #2 → G2 robust z-score = -0.0951; G2 cells, % of GMNN control = 2.3; Call = inactive
BTN1A1 #3 → G2 robust z-score = -1.11; G2 cells, % of GMNN control = -4.82; Call = inactive
CDK14 #1 → G2 robust z-score = 7.35; G2 cells, % of GMNN control = 54.7; Call = active
CDK14 #2 → G2 robust z-score = 1.29; G2 cells, % of GMNN control = 12.1; Call = inactive
CDK14 #3 → G2 robust z-score = -0.294; G2 cells, % of GMNN control = 0.9; Call = inactive
TFCP2 #1 → G2 robust z-score = 0.635; G2 cells, % of GMNN control = 7.43; Call = inactive
TFCP2 #2 → G2 robust z-score = -0.202; G2 cells, % of GMNN control = 1.55; Call = inactive
TFCP2 #3 → G2 robust z-score = 0.572; G2 cells, % of GMNN control = 6.99; Call = inactive
